# Assay results as given in patent US11629171B2 (POLYPHOR AG, priority 2017, dated 2023).
# Strings that start with PEPTIDE1 are HELM notation: dots part the residues, brackets hold end groups and non-standard residues.
# Assay: general procedure: Fmoc solid-phase peptide synthesis; 2-chlorotrityl resin (polystyrene crosslinked with 1-5% divinylbenzene)
# Settings: whole synthesis, HPLC-MS
row,Substance,final HPLC purity [%]
1,"PEPTIDE1{V.E.Y.[Dab].E.[D-Dab].T.W.S.[tBuGly].[Dab].S}|PEPTIDE2{[Dab].T.[Dab].[Dab].[Dab].[dL].L.[Dab].[Dab].T}$PEPTIDE1,PEPTIDE1,2:R3-11:R3|PEPTIDE1,PEPTIDE2,5:R3-1:R1|PEPTIDE2,PEPTIDE2,4:R3-10:R2$$$V2.0",83
2,"PEPTIDE1{[HOVal].C.Y.[Dab].E.[D-Dab].[Hse].W.[Hse].[tBuGly].C.[Throl]}|PEPTIDE2{[Dab].T.[Dab].[Dab].[Dab].[dL].L.[Dab].[Dab].T}$PEPTIDE1,PEPTIDE1,2:R3-11:R3|PEPTIDE1,PEPTIDE2,5:R3-1:R1|PEPTIDE2,PEPTIDE2,4:R3-10:R2$$$V2.0",87
3,"PEPTIDE1{[HOVal].C.Y.[Dab].E.[D-Dab].T.W.[Hse].[tBuGly].C.[Throl]}|PEPTIDE2{[Dab].T.[Dab].[Dab].[Dab].[dL].L.[Dab].[Dab].T}$PEPTIDE1,PEPTIDE1,2:R3-11:R3|PEPTIDE1,PEPTIDE2,5:R3-1:R1|PEPTIDE2,PEPTIDE2,4:R3-10:R2$$$V2.0",84
4,"PEPTIDE1{[ac].V.C.Y.S.E.[D-Dab].T.W.S.[tBuGly].C.S.[am]}|PEPTIDE2{[Dab].T.[Dab].[Dab].[Dab].[dL].L.[Dab].[Dab].T}$PEPTIDE1,PEPTIDE1,3:R3-12:R3|PEPTIDE1,PEPTIDE2,6:R3-1:R1|PEPTIDE2,PEPTIDE2,4:R3-10:R2$$$V2.0",93
5,"PEPTIDE1{[3MeButA].C.Y.[Dap].E.[D-Dab].T.W.S.[tBuGly].C.[Serol]}|PEPTIDE2{[Dab].T.[Dab].[Dab].[Dab].[dL].L.[Dab].[Dab].T}$PEPTIDE1,PEPTIDE1,2:R3-11:R3|PEPTIDE1,PEPTIDE2,5:R3-1:R1|PEPTIDE2,PEPTIDE2,4:R3-10:R2$$$V2.0",91
6,"PEPTIDE1{[HOVal].C.Y.[Dab].E.[D-Dab].[Hse].W.G.[tBuGly].C.[Throl]}|PEPTIDE2{[Dab].T.[Dab].[Dab].[Dab].[dL].L.[Dab].[Dab].T}$PEPTIDE1,PEPTIDE1,2:R3-11:R3|PEPTIDE1,PEPTIDE2,5:R3-1:R1|PEPTIDE2,PEPTIDE2,4:R3-10:R2$$$V2.0",84
7,"PEPTIDE1{[ac].V.[Hcy].Y.[Dap].E.[D-Dab].S.W.S.[tBuGly].C.S.[am]}|PEPTIDE2{[Dab].T.[Dap].[Dab].[Dab].[dL].L.[Dab].[Dab].T}$PEPTIDE1,PEPTIDE1,3:R3-12:R3|PEPTIDE1,PEPTIDE2,6:R3-1:R1|PEPTIDE2,PEPTIDE2,4:R3-10:R2$$$V2.0",81
8,"PEPTIDE1{[ac].V.[Orn].Y.[Dap].E.[D-Dab].[Dab].W.S.V.[dT]}|PEPTIDE2{[Dab].T.[Dap].[Dab].[Dab].[dL].L.[Dab].[Dab].T}$PEPTIDE1,PEPTIDE1,3:R3-12:R2|PEPTIDE1,PEPTIDE2,6:R3-1:R1|PEPTIDE2,PEPTIDE2,4:R3-10:R2$$$V2.0",76
9,"PEPTIDE1{[ac].Y.C.V.[Dab].E.[D-Dab].[Hse].W.S.[tBuGly].C.[Serol]}|PEPTIDE2{[Dab].T.[Dab].[Dab].[Dab].[dL].L.[Dab].[Dab].T}$PEPTIDE1,PEPTIDE1,3:R3-12:R3|PEPTIDE1,PEPTIDE2,6:R3-1:R1|PEPTIDE2,PEPTIDE2,4:R3-10:R2$$$V2.0",95
10,"PEPTIDE1{[HOVal].[Orn].Y.S.E.[D-Dab].[Hse].W.S.[tBuGly].[dT]}|PEPTIDE2{[Dab].T.[Dap].[Dab].[Dab].[dL].L.[Dab].[Dab].T}$PEPTIDE1,PEPTIDE1,2:R3-11:R2|PEPTIDE1,PEPTIDE2,5:R3-1:R1|PEPTIDE2,PEPTIDE2,4:R3-10:R2$$$V2.0",70
11,"PEPTIDE1{[HOVal].C.Y.[Dab].E.[D-Dab].[Hse].W.S.V.C.[Throl]}|PEPTIDE2{[Dab].T.[Dab].[Dab].[Dab].[dL].L.[Dab].[Dab].T}$PEPTIDE1,PEPTIDE1,2:R3-11:R3|PEPTIDE1,PEPTIDE2,5:R3-1:R1|PEPTIDE2,PEPTIDE2,4:R3-10:R2$$$V2.0",87
12,"PEPTIDE1{[Hiv].C.Y.[Dab].E.[D-Dab].S.W.S.V.C.S.[am]}|PEPTIDE2{[Dab].T.[Dap].[Dab].[Dab].[dL].L.[Dab].[Dab].T}$PEPTIDE1,PEPTIDE1,2:R3-11:R3|PEPTIDE1,PEPTIDE2,5:R3-1:R1|PEPTIDE2,PEPTIDE2,4:R3-10:R2$$$V2.0",95
13,"PEPTIDE1{[ac].V.[Orn].Y.S.E.[D-Dab].[Hse].W.S.[tBuGly].[dN]}|PEPTIDE2{[Dab].T.[Dap].[Dab].[Dab].[dL].L.[Dab].[Dab].T}$PEPTIDE1,PEPTIDE1,3:R3-12:R2|PEPTIDE1,PEPTIDE2,6:R3-1:R1|PEPTIDE2,PEPTIDE2,4:R3-10:R2$$$V2.0",83
14,"PEPTIDE1{[ac].L.[Orn].Y.[Dap].E.[D-Dab].[Hse].W.S.[tBuGly].[dT]}|PEPTIDE2{[Dab].T.[Dap].[Dab].[Dab].[dL].L.[Dab].[Dab].T}$PEPTIDE1,PEPTIDE1,3:R3-12:R2|PEPTIDE1,PEPTIDE2,6:R3-1:R1|PEPTIDE2,PEPTIDE2,4:R3-10:R2$$$V2.0",81
15,"PEPTIDE1{[3MeButA].C.Y.[Dap].E.[D-Dab].T.W.S.[tBuGly].C.[Glyol]}|PEPTIDE2{[Dab].T.[Dab].[Dab].[Dab].[dL].L.[Dab].[Dab].T}$PEPTIDE1,PEPTIDE1,2:R3-11:R3|PEPTIDE1,PEPTIDE2,5:R3-1:R1|PEPTIDE2,PEPTIDE2,4:R3-10:R2$$$V2.0",87
16,"PEPTIDE1{[HOVal].C.V.[Dab].E.[D-Dab].[Hse].W.S.[tBuGly].C.[Tyrol]}|PEPTIDE2{[Dab].T.[Dab].[Dab].[Dab].[dL].L.[Dab].[Dab].T}$PEPTIDE1,PEPTIDE1,2:R3-11:R3|PEPTIDE1,PEPTIDE2,5:R3-1:R1|PEPTIDE2,PEPTIDE2,4:R3-10:R2$$$V2.0",95
17,"PEPTIDE1{[ac].V.[Orn].Y.S.E.[D-Dab].S.W.S.[tBuGly].[dT]}|PEPTIDE2{[Dab].T.[Dap].[Dab].[Dab].[dL].L.[Dab].[Dab].T}$PEPTIDE1,PEPTIDE1,3:R3-12:R2|PEPTIDE1,PEPTIDE2,6:R3-1:R1|PEPTIDE2,PEPTIDE2,4:R3-10:R2$$$V2.0",71
18,"PEPTIDE1{[HOVal].C.Y.[Dab].E.[D-Dab].S.W.S.[tBuGly].C.[Throl]}|PEPTIDE2{[Dab].T.[Dab].[Dab].[Dab].[dL].L.[Dab].[Dab].T}$PEPTIDE1,PEPTIDE1,2:R3-11:R3|PEPTIDE1,PEPTIDE2,5:R3-1:R1|PEPTIDE2,PEPTIDE2,4:R3-10:R2$$$V2.0",82
19,"PEPTIDE1{[ac].Y.C.V.[Dab].E.[D-Dab].[Hse].V.S.W.C.[Serol]}|PEPTIDE2{[Dab].T.[Dab].[Dab].[Dab].[dL].L.[Dab].[Dab].T}$PEPTIDE1,PEPTIDE1,3:R3-12:R3|PEPTIDE1,PEPTIDE2,6:R3-1:R1|PEPTIDE2,PEPTIDE2,4:R3-10:R2$$$V2.0",88
20,"PEPTIDE1{V.C.Y.[Dab].E.[D-Dab].T.W.S.[tBuGly].C.S}|PEPTIDE2{[Dab].T.[Dab].[Dab].[Dab].[dL].L.[Dab].[Dab].T}$PEPTIDE1,PEPTIDE1,2:R3-11:R3|PEPTIDE1,PEPTIDE2,5:R3-1:R1|PEPTIDE2,PEPTIDE2,4:R3-10:R2$$$V2.0",92
21,"PEPTIDE1{[HOVal].C.Y.[Dab].E.[D-Dab].[Hse].W.S.[tBuGly].C.[Throl]}|PEPTIDE2{[Dab].S.[Dab].[Dab].[Dab].[dL].L.[Dab].[Dab].T}$PEPTIDE1,PEPTIDE1,2:R3-11:R3|PEPTIDE1,PEPTIDE2,5:R3-1:R1|PEPTIDE2,PEPTIDE2,4:R3-10:R2$$$V2.0",84
22,"PEPTIDE1{[HOVal].C.Y.[Dab].E.[D-Dab].[Hse].W.S.[tBuGly].C.[Glyol]}|PEPTIDE2{[Dab].T.[Dab].[Dab].[Dab].[dL].L.[Dab].[Dab].T}$PEPTIDE1,PEPTIDE1,2:R3-11:R3|PEPTIDE1,PEPTIDE2,5:R3-1:R1|PEPTIDE2,PEPTIDE2,4:R3-10:R2$$$V2.0",80
23,"PEPTIDE1{[HOVal].C.Y.[Dab].E.[D-Dab].[Hse].W.T.[tBuGly].C.[Throl]}|PEPTIDE2{[Dab].T.[Dab].[Dab].[Dab].[dL].L.[Dab].[Dab].T}$PEPTIDE1,PEPTIDE1,2:R3-11:R3|PEPTIDE1,PEPTIDE2,5:R3-1:R1|PEPTIDE2,PEPTIDE2,4:R3-10:R2$$$V2.0",90
24,"PEPTIDE1{[HOVal].C.Y.[Dab].E.[D-Dab].[Hse].W.S.[tBuGly].C.[Serol]}|PEPTIDE2{[Dab].T.[Dab].[Dab].[Dab].[dL].L.[Dab].[Dab].T}$PEPTIDE1,PEPTIDE1,2:R3-11:R3|PEPTIDE1,PEPTIDE2,5:R3-1:R1|PEPTIDE2,PEPTIDE2,4:R3-10:R2$$$V2.0",88
25,"PEPTIDE1{[ac].V.[Orn].Y.S.E.[D-Dab].[Hse].W.S.[tBuGly].[D-Orn]}|PEPTIDE2{[Dab].T.[Dap].[Dab].[Dab].[dL].L.[Dab].[Dab].T}$PEPTIDE1,PEPTIDE1,3:R3-12:R2|PEPTIDE1,PEPTIDE2,6:R3-1:R1|PEPTIDE2,PEPTIDE2,4:R3-10:R2$$$V2.0",75
26,"PEPTIDE1{[NMeVal].C.Y.[Dab].E.[D-Dab].[Hse].W.[Hse].V.C.S.[am]}|PEPTIDE2{[Dab].T.[Dab].[Dab].[Dab].[dL].L.[Dab].[Dab].T}$PEPTIDE1,PEPTIDE1,2:R3-11:R3|PEPTIDE1,PEPTIDE2,5:R3-1:R1|PEPTIDE2,PEPTIDE2,4:R3-10:R2$$$V2.0",90
27,"PEPTIDE1{[HOVal].C.Y.[Dap].E.[D-Dab].T.W.E.[tBuGly].C.[Throl]}|PEPTIDE2{[Dab].T.[Dab].[Dab].[Dab].[dL].L.[Dab].[Dab].T}$PEPTIDE1,PEPTIDE1,2:R3-11:R3|PEPTIDE1,PEPTIDE2,5:R3-1:R1|PEPTIDE2,PEPTIDE2,4:R3-10:R2$$$V2.0",81
28,"PEPTIDE1{[pGlu].C.Y.[Dab].E.[D-Dab].[Hse].W.S.[tBuGly].C.[Throl]}|PEPTIDE2{[Dab].T.[Dab].[Dab].[Dab].[dL].L.[Dab].[Dab].T}$PEPTIDE1,PEPTIDE1,2:R3-11:R3|PEPTIDE1,PEPTIDE2,5:R3-1:R1|PEPTIDE2,PEPTIDE2,4:R3-10:R2$$$V2.0",93
